No constants are given. Whether binding was seen depends on the method and setting. In cells and extracts the contact can be indirect. Some binding calls cover weakened binding; strength is not graded here.
Molecular target: Zygote arrest 1 (ZAR1), as used in the co-immunoprecipitation (human) (UniProt Q86SH2)
Assay: co-IP; co-immunoprecipitation of ZAR1 with ZAR1, with and without the zinc-finger; tags, cells and conditions not shown (Figure S9e)

B1: Zygote arrest 1 (ZAR1), as used in the co-immunoprecipitation (protein, UniProt Q86SH2 1-424)
chain: MAALGDEVLDGYVFPACPPCSYRYPYPAATKGKGAAGGSWQQRGRGCLPASSPCSAGAASLSFPGCGRLTAAEYFDSYQRERLMALLAQVGPGLGPRARRAGSCDVAVQVSPRIDAAVQCSLGRRTLQRRARDPESPAGPGAEGTTGGGSFSQQPSRRGLEQGSPQNGAPRPMRFPRTVAVYSPLALRRLTAFLEGPGPAAGEQRSGASDGERGPPPARLQGPEEGEVWTKKAPRRPQSDDDGEAQAAVRASWEQPADGPELPPREAQEGEAAPRSALRSPGQPPSAGRARDGGDGREAAVAGEGPSPRSPELGKERLRFQFLEQKYGYYHCKDCNIRWESAYVWCVQGTNKVYFKQFCRTCQKSYNPYRVEDITCQSCKQTRCSCPVKLRHVDPKRPHRQDLCGRCKGKRLSCDSTFSFKYII
For B1, the binding was “binds”.

Reference: article PMC6894338
